{"source": "PubChem BioAssay AID493014", "about": "(National Center for Advancing Translational Sciences (NCATS), 2011)", "note": "In all, about 340,000 compounds went through this assay and about 170 (0.05%) were called active. This list was built around the results that the source calls inconclusive (neither active nor inactive); the mix of calls is not that of the screen. Calls follow the shape of the dose curve; as a rule, active = well fitted inhibition curve with a large enough effect in the signal ratio, with a control signal flat (not every such curve was filed as active); inconclusive = small, poorly fitted or top-dose-only effect, or effect the other way, or a change in a side signal; inactive = flat fitted curve, though single readings scatter; the % refers to the signal ratio. Where the call is inconclusive, the potency comes from a doubtful curve fit. Potency is read from the fitted curve at half-maximal effect.", "data": [{"test": "qHTS Assay to Find Inhibitors of Chronic Active B-Cell Receptor Signaling;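 as to activity change, negative = inhibition: plate controls were basal doxycycline-induced cells for no effect and cells given 10 µM MG132 for full effect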", "conditions": "ABC-DLBCL IkBa-CBG/CBR reporter, luminescence ratio (green luciferase fused to IkBa over red control in TMD8 lymphoma cells), 4 h; activity change, negative = inhibition: at 46.1 µM (top of the series)", "method_in_brief": "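Cell line TMD8 (human ABC DLBCL), stably expressing tet-inducible CBG68-IkBa fusion and CBR; IMDM/0.5% FBS; cpd up to 46 uM; dox induction, 4 h, 37C/5% CO2; dual luminescence; green/red ratio; MG132 control.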", "values": [{"compound": "COC(=O)CN1C(=O)[C@H]2[C@@H](c3ccc(C)o3)N3C(=O)CN(CC4CC4)C(=O)[C@@]3(Cc3ccccc3)[C@H]2C1=O", "activity change, negative = inhibition": "inactive: 0.384%"}, {"compound": "Cc1cc(/C([O-])=C(/C(=S)Nc2ccccc2)[n+]2ccccc2)c(C)n1-c1ccccc1", "Potency": "inconclusive: 18.4 µM [falling, partial curve, poor fit]"}, {"compound": "O=C(CCNC(=O)c1ccc(Cl)cc1)NCCC1=CCCCC1", "activity change, negative = inhibition": "inconclusive: 23.7%"}, {"compound": "COc1ccc(Cl)c2sc(NC(=O)C3=COCCO3)nc12", "activity change, negative = inhibition": "inconclusive: 20.4%"}, {"compound": "O=C(c1cccc(-c2ccc(O)cc2)c1)N1CCOCC1", "Potency": "inconclusive: 2.06 µM [rising, partial curve, poor fit]"}, {"compound": "CCC(CO)Oc1cc(NCc2ccccc2)c2ncn(C3CCCC3)c2c1", "note": "(stereo not given)", "activity change, negative = inhibition": "inconclusive: 0.424%"}, {"compound": "Cc1ccc(NS(=O)(=O)c2cc(C(=O)N3CCOCC3)ccc2C)cc1", "activity change, negative = inhibition": "inactive: -0.747%"}, {"compound": "CC(C)(C)C1CCc2c(sc(NC(=O)C3CC=CCC3C(=O)O)c2C#N)C1", "note": "(stereo not given)", "activity change, negative = inhibition": "inconclusive: 9.63%"}, {"compound": "COc1cc(OC)cc(C(=O)NNC(=O)Cc2ccc(OC)c(S(=O)(=O)N3CCOCC3)c2)c1", "Potency": "inconclusive: 32.6 µM [falling, single point]"}, {"compound": "CCOc1ccc(OCCC(=O)N(CCC2=CCCCC2)c2c(N)n(Cc3ccccc3)c(=O)[nH]c2=O)cc1", "activity change, negative = inhibition": "inactive: 1.73%"}, {"compound": "Cc1ccc(CONC(=O)c2cccc([N+](=O)[O-])c2)cc1", "activity change, negative = inhibition": "inactive: -1.91%"}, {"compound": "CCOC(=O)N1CCN(C(=O)CSc2nnc(-c3cc(OC)ccc3OC)o2)CC1", "activity change, negative = inhibition": "inconclusive: 0.83%"}, {"compound": "COC(=O)c1sccc1NC(=O)CN(C)NS(=O)(=O)c1ccc(F)cc1", "Potency": "inconclusive: 15.8 µM [falling, partial curve, poor fit]"}, {"compound": "Nc1ccc(-c2nnc(-c3ccc(N)cc3)o2)cc1", "activity change, negative = inhibition": "inconclusive: -9.57%"}, {"compound": "C=CC[C@@H](Cc1ccc(F)cc1)C(=O)OC[C@@H]1CCCN1C(=O)[C@H](CC=C)CC(=O)N[C@H](CO)Cc1ccccc1", "activity change, negative = inhibition": "inconclusive: -12%"}, {"compound": "Cc1ccc(Cn2nnc3c(=O)[nH]c(C4CCCN(C(=O)Nc5ccc(F)cc5F)C4)nc32)cc1", "note": "(stereo not given)", "activity change, negative = inhibition": "inconclusive: 17.8%"}, {"compound": "Nc1nn2cc(-c3ccccc3)nc2c2ccccc12", "Potency": "inconclusive: 5.62 µM [rising, single point]"}, {"compound": "COc1ccc(C2(C)NC(=O)N(CC(=O)Nc3ccc(-c4nc5ccc(C)cc5s4)cc3)C2=O)cc1", "note": "(stereo not given)", "activity change, negative = inhibition": "inconclusive: 9.75%"}, {"compound": "CCCCn1c(-c2sccc2C)n[nH]c1=S", "activity change, negative = inhibition": "inconclusive: 7.61%"}, {"compound": "CCOc1ccc(NC(=O)[C@H](C)NC(=O)C2CC(=O)N(c3ccc(OC)cc3)C2)cc1", "note": "(stereo not given in full)", "activity change, negative = inhibition": "inconclusive: 4.1%"}, {"compound": "COc1ccc(NC(=O)CSc2cc(C)ccc2C)cn1", "activity change, negative = inhibition": "inactive: 5.72%"}, {"compound": "O=S(=O)(NCc1ccccc1)NCc1ccc(Cl)cc1Cl", "activity change, negative = inhibition": "inactive: 6.58%"}, {"compound": "Cc1c(OC(C)C(=O)NCC2CCC(C(=O)O)CC2)ccc2c(-c3ccccc3)cc(=O)oc12", "note": "(stereo not given)", "activity change, negative = inhibition": "inconclusive: 0.705%"}, {"compound": "CCC(=O)N1CCc2cc(Br)cc(S(=O)(=O)N3CCN(C(=O)c4ccco4)CC3)c21", "activity change, negative = inhibition": "inconclusive: 10.2%"}, {"compound": "COc1ccccc1C1CCN(c2cc(O)ccc2[N+](=O)[O-])CC1", "Potency": "inconclusive: 17.8 µM [falling, single point]"}, {"compound": "CCCCCOC(=O)Nc1nnc(CCC)s1", "activity change, negative = inhibition": "inconclusive: 3.05%"}, {"compound": "COc1cc2c(cc1OC)C1=NC(=O)CN1C(SCc1ccccc1C)=N2", "activity change, negative = inhibition": "inactive: -2.52%"}, {"compound": "Cc1c(N=C2C(=O)Nc3ccccc32)c(=O)n(-c2ccccc2)n1C", "activity change, negative = inhibition": "inconclusive: -15.6%"}, {"compound": "O=C(NCC1CCCO1)c1cccc(S(=O)(=O)N2CCCCC2)c1", "note": "(stereo not given)", "activity change, negative = inhibition": "inactive: -4.89%"}, {"compound": "CCn1c(C)c(C)c2cc(C(=O)NCCCN3CCOCC3)ccc21", "activity change, negative = inhibition": "inconclusive: 2.53%"}, {"compound": "Cc1ccc(-n2nc3c(=O)n(CCCC(=O)NCC(C)c4ccccc4)nc(C)c3c2C)cc1", "note": "(stereo not given)", "activity change, negative = inhibition": "inconclusive: -2.98%"}, {"compound": "COc1ccccc1NC(=O)CSC1=Nc2ccccc2C2=NC(CCC(=O)NCc3ccco3)C(=O)N12", "note": "(stereo not given)", "activity change, negative = inhibition": "inactive: 1.61%"}, {"compound": "CN1c2ccc(C=O)c3c(C=O)ccc(c23)N(C)C1(C)C", "activity change, negative = inhibition": "inconclusive: 12.1%"}, {"compound": "Cc1cccc(NC(=O)N2CCc3ccccc3C2)c1C", "Potency": "inconclusive: 14.1 µM [falling, partial curve]"}, {"compound": "O=C(COc1cccc(F)c1)Oc1ccc(C(=O)c2ccccc2)cc1", "activity change, negative = inhibition": "inconclusive: 2.67%"}, {"compound": "COc1ccc2nc(-c3ccco3)c(-c3ccco3)nc2c1", "activity change, negative = inhibition": "inactive: 13.2%"}, {"compound": "O=C(CCN1C(=O)c2ccccc2C1=O)Nc1ccc(-c2nc3ccccc3s2)cc1", "activity change, negative = inhibition": "inconclusive: 19.6%"}, {"compound": "COc1ccccc1/C=C/C(=O)OCC(=O)Nc1ccc2c(c1)OCCO2", "activity change, negative = inhibition": "inactive: 3.57%"}, {"compound": "c1ccc2c(CCNc3ncnc4nc[nH]c34)c[nH]c2c1", "Potency": "inconclusive: 23.1 µM [falling, partial curve]"}, {"compound": "COc1ccccc1/C=N/NC(=O)c1ccc(-c2ccccc2)cc1", "Potency": "inconclusive: 16.4 µM [falling, partial curve]"}, {"compound": "O=C(CN(Cc1ccc(F)cc1)C(=O)CCC(=O)Nc1ccccn1)NCc1ccc(F)cc1", "activity change, negative = inhibition": "inactive: -0.0108%"}, {"compound": "Cc1cc(NS(=O)(=O)c2ccc(Nc3nc(-c4sc(N)nc4C)cs3)cc2)no1", "activity change, negative = inhibition": "inactive: 0.692%"}, {"compound": "Clc1ccc(-c2nnc(C3CCCCC3)o2)cc1", "activity change, negative = inhibition": "inconclusive: 17.9%"}, {"compound": "O=C(NCc1cccs1)c1cc(-c2ccccc2)on1", "Potency": "inconclusive: 3.66 µM [falling, partial curve, poor fit]"}, {"compound": "OCCSc1nc(-c2ccccc2)nc2ccc(F)cc12", "Potency": "inconclusive: 17.8 µM [rising, partial curve, poor fit]"}, {"compound": "Brc1ccc(-c2noc(C3CCCCC3)n2)cc1", "activity change, negative = inhibition": "inactive: 7.95%"}, {"compound": "O=C(Nc1ccc(Cl)cc1)N(CCCN1CCOCC1)Cc1cccs1", "Potency": "inconclusive: 6.51 µM [rising, partial curve, poor fit]"}, {"compound": "CCOc1ccccc1/C=C/c1cc(C(=O)O)c2ccccc2n1", "activity change, negative = inhibition": "inconclusive: -7.9%"}, {"compound": "Cc1ccc(NC(=O)Cc2sc(C)nc2-c2ccc(C)cc2)cc1", "activity change, negative = inhibition": "inconclusive: 12.9%"}, {"compound": "COc1ccccc1CC(=O)Nc1cc(OC)c(NC(=O)c2ccccc2)cc1OC", "activity change, negative = inhibition": "inactive: -4.66%"}, {"compound": "Cc1ccc(Nc2nc(C(=O)N3CCC(C(=O)N4CCN(C)CC4)CC3)cs2)cc1", "activity change, negative = inhibition": "inconclusive: 1.39%"}, {"compound": "O=C(OCc1ccc(C(=O)c2ccccc2)cc1)c1cccc(-c2nnc(-c3ccccc3)o2)c1", "activity change, negative = inhibition": "inactive: -21.2%"}, {"compound": "COc1cc(/C=N/NC(=O)c2cccs2)ccc1OCc1ccccc1", "Potency": "inconclusive: 22.4 µM [falling, single point]"}, {"compound": "CC(=O)N1CSCC1C(=O)N1CCN(c2ccc(N3CCOCC3)nn2)CC1", "note": "(stereo not given)", "activity change, negative = inhibition": "inconclusive: 15.5%"}, {"compound": "COC(=O)[C@@]12CCCCN1[C@H](c1ccc(-c3ccc(Cl)c(Cl)c3)c(OC)c1)[C@H]1C(=O)N(C)C(=O)[C@H]12", "activity change, negative = inhibition": "inconclusive: -0.0437%"}, {"compound": "COc1ccc(O)c(C(=O)c2cnn(C(=O)c3cccc(N(C)C)c3)c2)c1", "activity change, negative = inhibition": "inactive: -0.0389%"}, {"compound": "COC(=O)c1[nH]c2ccccc2c1NC(=O)/C=C/c1ccc2c(c1)OCO2", "Potency": "inconclusive: 20.6 µM [falling, partial curve, poor fit]"}, {"compound": "O=C(NC(=S)Nc1ccc(F)cc1)c1ccc2c(c1)OCCO2", "activity change, negative = inhibition": "inconclusive: -9.86%"}, {"compound": "Cc1ccc(-c2ccc(CCC(=O)O)n2Cc2ccco2)cc1", "Potency": "inconclusive: 16.4 µM [activator, partial curve]"}, {"compound": "C[C@H]1CN=C(Nc2ccccc2)N1CC1CCCCCC1", "activity change, negative = inhibition": "inactive: -23%"}, {"compound": "COc1cccc(N2CC(C(=O)NCc3n[nH]c(=O)c4ccccc34)CC2=O)c1", "note": "(stereo not given)", "Potency": "inconclusive: 29.1 µM [falling, single point]"}, {"compound": "COc1cc(-c2nnc(COC(=O)c3ccc(C)o3)o2)cc(OC)c1OC", "activity change, negative = inhibition": "inactive: -5.08%"}, {"compound": "COc1ccc(NS(=O)(=O)c2cc(C)ccc2NC(=O)c2cc(C)oc2C)cc1", "activity change, negative = inhibition": "inconclusive: 26.2%"}, {"compound": "Cc1ccccc1OCC(=O)Nc1ccc(N2CCN(C)CC2)c(Cl)c1", "activity change, negative = inhibition": "inactive: 0.026%"}, {"compound": "Nc1ncnc2c1ncn2[C@@H]1O[C@H](CNCc2ccccc2)[C@@H](O)[C@H]1O", "activity change, negative = inhibition": "inconclusive: -1.84%"}, {"compound": "O=C(Nc1ccc(Cl)cc1)NC1CCCc2ccccc21", "note": "(stereo not given)", "Potency": "inconclusive: 5.62 µM [falling, partial curve]"}, {"compound": "CCCc1nnc(NC(=O)C(C)N2C(=O)C3C4C=CC(C4)C3C2=O)s1", "note": "(stereo not given)", "activity change, negative = inhibition": "inconclusive: 11.2%"}, {"compound": "Clc1ccccc1OCCCn1ccnc1", "activity change, negative = inhibition": "inactive: -3.81%"}, {"compound": "O=[N+]([O-])c1cc(C(F)(F)F)ccc1NCCc1c[nH]c2ccccc12", "Potency": "inconclusive: 5.8 µM [rising, partial curve, poor fit]"}, {"compound": "CCOc1cccc(C(=O)NC(=S)Nc2cccc(C)c2)c1", "Potency": "inconclusive: 14.6 µM [falling, partial curve]"}, {"compound": "COc1ccc(N/N=C(\\C#N)C(=N)N2CCCCC2)cc1", "activity change, negative = inhibition": "inactive: -1.32%"}, {"compound": "Fc1cccc(Nc2ncnc3c2cnn3-c2ccccc2)c1", "Potency": "inconclusive: 35.5 µM [falling, single point]"}, {"compound": "COc1ccc(C)cc1NC(=O)C(OC(=O)Cn1cnc2c1c(=O)n(C)c(=O)n2C)c1ccccc1", "note": "(stereo not given)", "activity change, negative = inhibition": "inconclusive: 6.94%"}, {"compound": "Cc1cc2c(OCC(O)CNCc3ccco3)cccc2[nH]1", "note": "(stereo not given)", "activity change, negative = inhibition": "inconclusive: -0.0704%"}, {"compound": "CCC(C)c1ccccc1OCCCCN1CCCC1", "note": "(stereo not given)", "activity change, negative = inhibition": "inactive: -14.1%"}, {"compound": "Cn1nnc2c(NCc3ccc(Cl)cc3)ncnc21", "activity change, negative = inhibition": "inconclusive: -15.8%"}, {"compound": "COc1cc2ccccc2cc1C(=O)N/N=C/c1cccnc1", "activity change, negative = inhibition": "inactive: -13.2%"}, {"compound": "Cc1ccc(/C(O)=C2\\C(=O)C(=O)N(C)C2c2ccc(Br)cc2)cc1", "note": "(stereo not given)", "activity change, negative = inhibition": "inactive: 0.923%"}, {"compound": "O=C(NC1CCCCC1)N1CCN(C(c2ccccc2)c2ccccc2)CC1", "Potency": "inconclusive: 1.64 µM [rising, full curve, poor fit]"}, {"compound": "N=c1scc(-c2ccccc2)n1/N=C/c1ccco1", "Potency": "inconclusive: 23.1 µM [falling, partial curve]"}]}]}
